From publication PMC7360063, “Brassinosteroids regulate root meristem development by mediating BIN2-UPB1 module in Arabidopsis” (PLoS Genetics, 2020)
These are yes or no findings as the source states them, for the method shown. In cells and extracts the contact can be indirect. Here binding means that the protein was enriched with, or labelled near, the bait; the list need not be complete. Where a sequence is shown, tags or fusion partners need not be part of it.

Target: T1, UPB1-HA-Flag (Arabidopsis) (UniProt O22901)
T1 sequence: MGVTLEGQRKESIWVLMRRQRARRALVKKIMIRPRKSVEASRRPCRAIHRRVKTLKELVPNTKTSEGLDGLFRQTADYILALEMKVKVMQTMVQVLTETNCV
Assay: affinity purification with mass spectrometry; IP-MS: extract of four-week-old pUPB1-UPB1-HA-Flag/upb1-1 plants on HA agarose beads; SDS-PAGE, in-gel trypsin digest, LC-MS/MS

binding: binds
B1: GST-PRE3 (natural protein, Arabidopsis, UniProt Q9CA64 1-93, looked up)
chain: MSGRRSRSRQSSGTSRISEDQINDLIIKLQQLLPELRDSRRSDKVSAARVLQDTCNYIRNLHREVDDLSERLSELLANSDTAQAALIRSLLTQ
notes: PRE3, Arabidopsis, At1g74500; source: E. coli, purified
